Seven substances from article PMC5814800 can be followed below.

These are yes or no findings as the source states them, for the method shown. A result given as binding can be weak or reduced; the word gives no strength. Where a sequence is shown, tags or fusion partners need not be part of it.

The target of this test is T1, wild-type ϕC31 integrase fused to T18 (Int-T18 fusion, pEY111) (Streptomyces phage ϕC31) (UniProt Q9T221).
T1 sequence: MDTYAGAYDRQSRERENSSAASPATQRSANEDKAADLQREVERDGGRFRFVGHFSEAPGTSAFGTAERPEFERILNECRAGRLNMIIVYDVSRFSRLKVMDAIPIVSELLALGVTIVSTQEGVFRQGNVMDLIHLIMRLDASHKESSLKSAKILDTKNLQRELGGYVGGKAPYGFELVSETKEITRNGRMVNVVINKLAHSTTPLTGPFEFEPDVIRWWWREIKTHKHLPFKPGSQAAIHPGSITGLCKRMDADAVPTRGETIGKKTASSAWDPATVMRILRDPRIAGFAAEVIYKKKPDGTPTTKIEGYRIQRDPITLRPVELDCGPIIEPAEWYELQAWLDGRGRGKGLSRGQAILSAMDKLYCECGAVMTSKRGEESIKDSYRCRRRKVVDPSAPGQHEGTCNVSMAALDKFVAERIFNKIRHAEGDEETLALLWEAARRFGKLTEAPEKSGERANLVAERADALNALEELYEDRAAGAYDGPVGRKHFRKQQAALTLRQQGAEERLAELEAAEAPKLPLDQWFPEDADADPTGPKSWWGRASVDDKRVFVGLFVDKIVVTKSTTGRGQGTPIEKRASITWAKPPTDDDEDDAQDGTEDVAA
In words: two-hybrid; bacterial two-hybrid (adenylate cyclase T18 and T25 fusions) in E. coli BTH101; colony colour on LB agar with IPTG and X-Gal, 30°C, 24–48 h.
Consider “T25 - TG1 gp25 fusion (pCMF30) (phage TG1)”, for which the binding entry is listed as “binds weakly”.

Consider “T25 - ϕBT1 gp3 fusion (pTK33) (phage ϕBT1)”, for which the binding result is given as “binds”.

For the substance “T25-ϕC31 gp3C117Y (Streptomyces phage ϕC31)”, the binding entry is on record as “no binding”.

With “T25-ϕC31 gp3G119D (Streptomyces phage ϕC31)”, the binding entry is given as “no binding”.

Consider “T25-ϕC31 gp3L170F (Streptomyces phage ϕC31)”, for which the binding result is on record as “no binding”.

Turning to “T25-ϕC31 gp3P154L (Streptomyces phage ϕC31)”, the binding entry is reported as “no binding”.

As to “T25-ϕC31 gp3P168L (Streptomyces phage ϕC31)”, the binding result was “binds”.
